Experimental data as given in PMC5216374.

Amino acid sequences for entries named in this document (tags omitted). A change or cut given only in a name is not applied to a line headed by its entry.
UniProt O95831: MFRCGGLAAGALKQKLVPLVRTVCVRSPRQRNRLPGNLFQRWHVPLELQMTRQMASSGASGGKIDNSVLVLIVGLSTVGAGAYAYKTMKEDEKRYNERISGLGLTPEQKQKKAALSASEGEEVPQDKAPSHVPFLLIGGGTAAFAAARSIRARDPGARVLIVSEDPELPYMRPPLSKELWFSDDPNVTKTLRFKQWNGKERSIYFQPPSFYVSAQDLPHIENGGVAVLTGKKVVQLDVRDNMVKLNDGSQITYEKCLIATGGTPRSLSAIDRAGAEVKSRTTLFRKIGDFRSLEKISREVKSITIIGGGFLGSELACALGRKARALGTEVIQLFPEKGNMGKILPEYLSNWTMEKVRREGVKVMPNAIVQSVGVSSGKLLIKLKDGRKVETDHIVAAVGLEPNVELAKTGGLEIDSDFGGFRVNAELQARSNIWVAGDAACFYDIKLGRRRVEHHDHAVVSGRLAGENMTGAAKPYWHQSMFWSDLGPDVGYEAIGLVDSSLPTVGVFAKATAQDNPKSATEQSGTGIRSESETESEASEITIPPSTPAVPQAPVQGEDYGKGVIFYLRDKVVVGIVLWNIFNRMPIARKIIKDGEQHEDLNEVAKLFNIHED

Columns and labels:
[1] = biological target: T1, full length TRIM14 ORF tagged at the C-terminus with 3xFLAG (human) (UniProt Q14142); test: co-IP; HEK293T whole-cell extracts, FLAG-TRIM14 immunoprecipitated with anti-FLAG antibody, endogenous partners detected by blot; empty FLAG vector as control
T1 sequence: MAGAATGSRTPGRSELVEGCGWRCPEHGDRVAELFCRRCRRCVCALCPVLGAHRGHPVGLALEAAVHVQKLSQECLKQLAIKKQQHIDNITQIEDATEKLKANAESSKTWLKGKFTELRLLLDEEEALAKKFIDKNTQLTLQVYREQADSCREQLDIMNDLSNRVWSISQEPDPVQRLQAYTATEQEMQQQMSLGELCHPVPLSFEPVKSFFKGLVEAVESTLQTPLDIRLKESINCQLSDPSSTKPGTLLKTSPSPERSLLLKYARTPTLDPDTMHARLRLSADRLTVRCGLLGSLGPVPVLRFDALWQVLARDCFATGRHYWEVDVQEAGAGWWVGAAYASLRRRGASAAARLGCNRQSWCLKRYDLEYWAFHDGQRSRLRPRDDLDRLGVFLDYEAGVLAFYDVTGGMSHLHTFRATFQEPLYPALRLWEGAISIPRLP

[2] = biological target: Apoptosis-inducing factor 1, mitochondrial (human (endogenous in HEK293T)) (UniProt O95831); test: co-IP; HEK293T cells, endogenous proteins; immunoprecipitation with anti-AIF antibody, blot for TRIM14

- binding [1]: binds
Molecule: Apoptosis-inducing factor 1, mitochondrial (from UniProt O95831)

- binding [2]: binds
B1: endogenous TRIM14 (protein, UniProt Q14142 1-442)
chain: T1 sequence

Results are given in words; binding and its absence hold for the method and conditions named. In cells and extracts the contact can be indirect. Binding calls can cover weak binding; strength is not graded here. For some assays here: Where a sequence is shown, tags or fusion partners need not be part of it. Each block holds one molecule with its values, some of them ahead of it.
